For some of these results: At least one compound was matched to its structure with a doubt left. Some entries share one result that the patent states for a list of compounds.
Tests used:
[1] = DPPH antioxidant (radical scavenging) assay; assay type: biochemical; conditions: 550 nm, samples 100 to 0.7 µg/ml
Experimental: Following the procedures as described by DuToit et al. (2001) for each sample, a dilution series (8 dilutions) was prepared in a 96 well plate by adding distilled water as a dilution medium. […] Each concentration was tested in triplicates. Vitamin C was used as a positive control. The radical scavenging capacities of the samples were determined using a BIOTEK plate reader to measure the disappearance of DPPH at 550 nm. The radical scavenging activity was measured in terms of the amount of antioxidants necessary to decrease the initial DPPH absorbance by 50% (IC50). The IC50 value of each sample was determined graphically by plotting the absorbance of DPPH as a function of the sample concentration in μg/ml. The IC50 is the amount of antioxidant necessary to decrease the initial DPPH absorbance by 50%. The results were calculated using the following equation: AA% = {Absblank(Abssample-Abscontrol)/Absblank} × 100 [formula] The mg vitamin C equivalents/g dry weight of potent samples was calculated as follows: […]) = (IC50(vitc)/IC50(sample)) × 1000. [formula]

P. acnes = test: Transmission electron microscopy (TEM) of treated bacteria; conditions: 50 µg/ml, 72 h

CCCCCCCCCCCCCCCCCCCCCCCCCCCCCCO [Compound C2, triacontanol]
Antioxidant IC50 ([1]; listed as Compound C2): did not showed any antioxidant activity

C/C(=C\CO)CCC[C@H](C)CCC[C@H](C)CCCC(C)C [Compound C3, phytol]
Antioxidant IC50 ([1]; listed as Compound C3): did not showed any antioxidant activity

CC(=O)OC/C=C(\C)CCC[C@H](C)CCC[C@H](C)CCCC(C)C [Compound C1, phytol acetate]
Antioxidant IC50 ([1]; listed as Compound C1): did not showed any antioxidant activity

CN(C)[C@@H]1C(O)=C(C(N)=O)C(=O)[C@@]2(O)C(O)=C3C(=O)c4c(O)cccc4[C@@](C)(O)[C@H]3C[C@@H]12 [tetracycline, reference compound]
cell injuries to P. acnes (TEM micrograph) (P. acnes): significant damages to the cells of P. acnes

Source: EP2879647B1, “SKIN CARE” (University of Pretoria, priority 2012, dated 2014)
